# From the supplement of paper PMC11732987, “Enantioselective OTUD7B fragment discovery through chemoproteomics screening and high-throughput optimisation” (Communications Chemistry, 2025)
# Amino acid sequences for entries named in this document (tags omitted). A change or cut given only in a name is not applied to a line headed by its entry. Residues count along the entry.
# UniProt O43896: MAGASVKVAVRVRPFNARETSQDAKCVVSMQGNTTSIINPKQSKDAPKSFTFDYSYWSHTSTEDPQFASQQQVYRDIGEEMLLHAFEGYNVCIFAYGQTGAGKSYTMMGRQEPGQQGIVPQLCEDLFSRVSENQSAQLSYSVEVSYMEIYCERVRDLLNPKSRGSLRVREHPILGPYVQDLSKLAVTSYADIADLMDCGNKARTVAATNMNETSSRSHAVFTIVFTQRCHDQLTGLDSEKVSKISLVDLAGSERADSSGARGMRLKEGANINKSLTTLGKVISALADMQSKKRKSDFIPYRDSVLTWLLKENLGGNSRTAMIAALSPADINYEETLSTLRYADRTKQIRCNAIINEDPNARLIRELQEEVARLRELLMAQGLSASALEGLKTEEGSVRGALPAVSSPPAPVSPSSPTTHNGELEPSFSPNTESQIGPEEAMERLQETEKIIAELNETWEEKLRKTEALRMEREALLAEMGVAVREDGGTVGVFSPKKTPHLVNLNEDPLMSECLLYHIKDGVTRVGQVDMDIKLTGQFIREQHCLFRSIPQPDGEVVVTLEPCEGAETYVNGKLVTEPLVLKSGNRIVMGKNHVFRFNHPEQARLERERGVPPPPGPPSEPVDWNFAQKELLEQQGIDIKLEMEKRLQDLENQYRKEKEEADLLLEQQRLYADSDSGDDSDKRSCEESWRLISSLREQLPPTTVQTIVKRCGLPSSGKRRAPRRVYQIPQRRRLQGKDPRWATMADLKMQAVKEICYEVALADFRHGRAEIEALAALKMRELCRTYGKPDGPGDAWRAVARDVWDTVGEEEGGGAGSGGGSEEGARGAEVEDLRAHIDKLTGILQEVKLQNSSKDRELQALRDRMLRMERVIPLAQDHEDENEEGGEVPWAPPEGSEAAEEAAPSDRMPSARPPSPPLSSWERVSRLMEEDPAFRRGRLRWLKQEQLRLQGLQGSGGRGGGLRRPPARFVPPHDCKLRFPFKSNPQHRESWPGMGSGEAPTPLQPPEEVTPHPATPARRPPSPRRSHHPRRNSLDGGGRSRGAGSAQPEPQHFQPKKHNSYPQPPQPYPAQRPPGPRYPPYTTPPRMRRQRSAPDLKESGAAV
# UniProt Q9ULH0, 35-55: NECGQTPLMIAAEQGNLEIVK
# UniProt P52732: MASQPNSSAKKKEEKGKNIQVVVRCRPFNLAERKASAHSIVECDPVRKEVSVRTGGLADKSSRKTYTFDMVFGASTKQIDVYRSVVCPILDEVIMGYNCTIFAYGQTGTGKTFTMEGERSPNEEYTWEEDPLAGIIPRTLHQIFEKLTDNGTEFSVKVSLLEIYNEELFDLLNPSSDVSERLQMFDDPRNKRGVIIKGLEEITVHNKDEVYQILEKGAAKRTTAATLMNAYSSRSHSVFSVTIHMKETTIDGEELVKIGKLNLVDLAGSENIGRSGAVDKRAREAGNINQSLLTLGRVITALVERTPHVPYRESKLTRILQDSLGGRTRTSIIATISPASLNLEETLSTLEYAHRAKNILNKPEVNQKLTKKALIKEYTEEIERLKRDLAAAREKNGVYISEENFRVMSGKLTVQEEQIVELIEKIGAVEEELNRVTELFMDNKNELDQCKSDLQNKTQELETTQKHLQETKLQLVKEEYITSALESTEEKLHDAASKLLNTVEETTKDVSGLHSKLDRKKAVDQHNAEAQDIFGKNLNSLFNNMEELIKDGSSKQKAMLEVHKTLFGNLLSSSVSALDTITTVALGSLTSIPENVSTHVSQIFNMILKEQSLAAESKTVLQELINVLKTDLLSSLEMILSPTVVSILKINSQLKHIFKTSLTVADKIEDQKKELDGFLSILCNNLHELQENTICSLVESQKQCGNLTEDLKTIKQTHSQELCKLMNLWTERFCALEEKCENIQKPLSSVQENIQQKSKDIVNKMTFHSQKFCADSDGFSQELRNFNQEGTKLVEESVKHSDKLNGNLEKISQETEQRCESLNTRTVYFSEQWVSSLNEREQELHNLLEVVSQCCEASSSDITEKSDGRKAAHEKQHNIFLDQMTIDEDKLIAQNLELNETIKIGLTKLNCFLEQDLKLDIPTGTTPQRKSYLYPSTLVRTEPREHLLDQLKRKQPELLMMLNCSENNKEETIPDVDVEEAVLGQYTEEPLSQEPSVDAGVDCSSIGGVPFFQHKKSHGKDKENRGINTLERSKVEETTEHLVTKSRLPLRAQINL
# UniProt Q63ZY3: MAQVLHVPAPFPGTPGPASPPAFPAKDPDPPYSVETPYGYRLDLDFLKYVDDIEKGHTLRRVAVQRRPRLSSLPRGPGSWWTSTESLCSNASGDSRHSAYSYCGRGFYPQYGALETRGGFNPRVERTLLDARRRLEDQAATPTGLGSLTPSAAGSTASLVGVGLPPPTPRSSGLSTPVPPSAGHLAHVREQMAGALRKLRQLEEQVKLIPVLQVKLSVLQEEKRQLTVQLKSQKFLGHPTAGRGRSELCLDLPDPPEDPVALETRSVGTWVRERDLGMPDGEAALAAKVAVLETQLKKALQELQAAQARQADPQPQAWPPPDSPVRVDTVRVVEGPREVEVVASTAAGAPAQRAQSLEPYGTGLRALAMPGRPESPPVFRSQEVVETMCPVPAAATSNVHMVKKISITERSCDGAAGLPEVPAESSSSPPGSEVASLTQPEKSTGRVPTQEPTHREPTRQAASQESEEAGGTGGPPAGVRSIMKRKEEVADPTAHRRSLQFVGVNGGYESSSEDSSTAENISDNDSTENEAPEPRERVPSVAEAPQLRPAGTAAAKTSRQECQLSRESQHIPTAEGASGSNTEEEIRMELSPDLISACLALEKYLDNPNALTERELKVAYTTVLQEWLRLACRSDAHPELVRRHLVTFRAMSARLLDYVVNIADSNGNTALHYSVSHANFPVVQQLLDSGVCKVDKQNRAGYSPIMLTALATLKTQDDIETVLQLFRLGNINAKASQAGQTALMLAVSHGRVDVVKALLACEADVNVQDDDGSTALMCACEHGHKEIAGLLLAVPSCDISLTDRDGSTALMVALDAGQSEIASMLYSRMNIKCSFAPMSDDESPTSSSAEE
# UniProt Q15652: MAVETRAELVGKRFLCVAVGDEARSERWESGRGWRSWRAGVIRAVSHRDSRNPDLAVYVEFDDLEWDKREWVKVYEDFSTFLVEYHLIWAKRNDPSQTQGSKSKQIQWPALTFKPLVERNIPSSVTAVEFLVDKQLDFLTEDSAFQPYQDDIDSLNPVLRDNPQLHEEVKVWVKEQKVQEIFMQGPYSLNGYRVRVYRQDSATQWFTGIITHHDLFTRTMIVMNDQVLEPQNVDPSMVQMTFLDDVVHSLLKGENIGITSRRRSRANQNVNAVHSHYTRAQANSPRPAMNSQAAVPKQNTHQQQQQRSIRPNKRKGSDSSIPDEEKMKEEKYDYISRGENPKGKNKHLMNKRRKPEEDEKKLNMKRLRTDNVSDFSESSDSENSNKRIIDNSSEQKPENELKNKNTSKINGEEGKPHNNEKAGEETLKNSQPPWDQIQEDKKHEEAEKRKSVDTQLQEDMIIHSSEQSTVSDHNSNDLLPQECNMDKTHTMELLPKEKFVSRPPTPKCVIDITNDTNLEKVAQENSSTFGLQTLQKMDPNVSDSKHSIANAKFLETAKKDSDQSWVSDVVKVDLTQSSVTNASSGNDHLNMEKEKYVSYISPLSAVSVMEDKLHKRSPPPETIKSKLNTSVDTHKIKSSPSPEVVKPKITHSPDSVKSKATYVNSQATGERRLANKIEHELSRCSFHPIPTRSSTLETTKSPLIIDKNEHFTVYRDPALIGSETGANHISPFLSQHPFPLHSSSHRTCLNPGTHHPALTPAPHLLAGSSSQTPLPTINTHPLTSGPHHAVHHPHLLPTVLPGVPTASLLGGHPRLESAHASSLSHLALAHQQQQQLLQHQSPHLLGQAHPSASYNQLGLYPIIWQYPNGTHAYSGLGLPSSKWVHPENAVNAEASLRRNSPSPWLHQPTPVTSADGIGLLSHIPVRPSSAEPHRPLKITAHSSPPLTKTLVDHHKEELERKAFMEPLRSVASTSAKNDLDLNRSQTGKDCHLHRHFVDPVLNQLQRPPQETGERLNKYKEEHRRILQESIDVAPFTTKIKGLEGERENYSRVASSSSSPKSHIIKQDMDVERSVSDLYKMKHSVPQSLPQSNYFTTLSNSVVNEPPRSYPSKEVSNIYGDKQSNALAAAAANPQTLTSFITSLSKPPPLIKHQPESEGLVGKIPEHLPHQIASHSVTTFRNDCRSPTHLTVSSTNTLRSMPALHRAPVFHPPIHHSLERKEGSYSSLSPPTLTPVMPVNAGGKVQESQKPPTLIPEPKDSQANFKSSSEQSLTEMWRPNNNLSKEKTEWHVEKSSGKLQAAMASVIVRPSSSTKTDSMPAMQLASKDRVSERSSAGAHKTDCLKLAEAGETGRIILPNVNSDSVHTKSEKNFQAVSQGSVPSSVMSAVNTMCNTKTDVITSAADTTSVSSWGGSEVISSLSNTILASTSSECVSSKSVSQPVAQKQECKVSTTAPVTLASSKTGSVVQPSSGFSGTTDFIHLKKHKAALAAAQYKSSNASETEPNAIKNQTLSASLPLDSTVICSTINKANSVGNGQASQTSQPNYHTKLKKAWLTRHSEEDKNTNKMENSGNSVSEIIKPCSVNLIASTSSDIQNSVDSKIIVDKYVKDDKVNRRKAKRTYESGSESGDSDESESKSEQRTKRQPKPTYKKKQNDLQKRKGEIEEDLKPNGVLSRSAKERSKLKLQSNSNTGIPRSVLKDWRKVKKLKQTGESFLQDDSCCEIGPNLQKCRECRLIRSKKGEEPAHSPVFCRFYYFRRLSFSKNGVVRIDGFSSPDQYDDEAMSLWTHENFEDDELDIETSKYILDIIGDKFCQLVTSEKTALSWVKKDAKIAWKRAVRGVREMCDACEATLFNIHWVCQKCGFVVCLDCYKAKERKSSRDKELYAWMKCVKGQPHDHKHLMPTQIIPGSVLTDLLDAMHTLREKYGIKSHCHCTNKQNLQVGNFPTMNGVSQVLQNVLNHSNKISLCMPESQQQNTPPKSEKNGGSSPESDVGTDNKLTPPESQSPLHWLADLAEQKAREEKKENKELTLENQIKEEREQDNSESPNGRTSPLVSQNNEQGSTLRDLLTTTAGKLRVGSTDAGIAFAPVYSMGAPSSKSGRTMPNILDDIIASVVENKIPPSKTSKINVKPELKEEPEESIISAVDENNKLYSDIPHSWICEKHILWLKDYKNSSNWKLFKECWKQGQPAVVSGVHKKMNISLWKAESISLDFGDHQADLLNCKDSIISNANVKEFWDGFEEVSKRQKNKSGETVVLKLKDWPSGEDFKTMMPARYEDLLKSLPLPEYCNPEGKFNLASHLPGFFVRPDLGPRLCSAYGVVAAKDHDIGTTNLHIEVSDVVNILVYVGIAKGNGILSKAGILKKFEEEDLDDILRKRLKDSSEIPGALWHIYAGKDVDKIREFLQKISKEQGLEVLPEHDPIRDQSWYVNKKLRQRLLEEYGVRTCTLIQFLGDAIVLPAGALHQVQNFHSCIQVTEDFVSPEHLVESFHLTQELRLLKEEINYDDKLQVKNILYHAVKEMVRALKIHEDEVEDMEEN
# UniProt P14923, 87-115: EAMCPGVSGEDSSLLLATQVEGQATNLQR
# UniProt Q9HDC5: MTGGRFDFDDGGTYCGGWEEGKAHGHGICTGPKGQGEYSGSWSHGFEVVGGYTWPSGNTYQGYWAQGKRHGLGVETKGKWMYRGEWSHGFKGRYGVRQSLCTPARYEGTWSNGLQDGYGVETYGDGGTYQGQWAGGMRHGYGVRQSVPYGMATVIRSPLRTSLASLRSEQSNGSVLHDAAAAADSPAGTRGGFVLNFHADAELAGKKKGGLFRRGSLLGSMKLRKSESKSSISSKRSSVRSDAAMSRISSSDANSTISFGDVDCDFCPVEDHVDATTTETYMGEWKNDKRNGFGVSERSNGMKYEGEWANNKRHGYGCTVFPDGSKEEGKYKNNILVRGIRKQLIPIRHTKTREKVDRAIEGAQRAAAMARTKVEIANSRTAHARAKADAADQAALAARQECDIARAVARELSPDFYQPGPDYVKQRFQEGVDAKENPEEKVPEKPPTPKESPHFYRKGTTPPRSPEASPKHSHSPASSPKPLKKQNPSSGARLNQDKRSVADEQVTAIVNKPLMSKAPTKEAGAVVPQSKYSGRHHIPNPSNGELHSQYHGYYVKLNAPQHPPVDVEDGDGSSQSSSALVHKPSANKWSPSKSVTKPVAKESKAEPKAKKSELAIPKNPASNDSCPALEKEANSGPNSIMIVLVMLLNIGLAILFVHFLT
# The list shows a part of the results. The data scatter; read single values as rough.
# What was measured:
# [1] = compound: ClCC(=O)N[C@@H]1CCCc2ccccc12; assay: log2 mean competition ratio of IA-DTB cysteine labelling (DMSO/compound) (log2 ratio); higher = stronger cysteine engagement by compound; details: treatment time: 4 h, cell line lysate: HEK293T
# Description: (§1)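 IA-DTB competitive cysteine chemoproteomics in HEK293T RIPA lysate. Lysates were treated with compound 29 or 30 at 50 or 200 µM for 4 h, then IA-DTB (500 µM, 1 h), trypsin-digested, NeutrAvidin-enriched and analysed by diaPASEF. Competition ratio = intensity DMSO / intensity compound (n=4 treated, n=64 DMSO); binding: mean log2 CR ≥ 1 and p ≤ 0.05 plus QC filters. Target is the cysteine site.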
# [2] = compound: ClCC(=O)N[C@H]1CCCc2ccccc12; assay: as above; details: treatment time: 4 h, cell line lysate: HEK293T
# Description: as §1
Target,log2 mean competition ratio ([1]; 50 µM),log2 mean competition ratio ([1]; 200 µM),log2 mean competition ratio ([2]; 50 µM),log2 mean competition ratio ([2]; 200 µM)
KDM3B C1392 (UniProt Q7LBC6),0.161,-0.103,0.0861,-0.228
KIF1C C975 (UniProt O43896),0.658,0.281,0.611,0.189
KIDINS220 C37 (UniProt Q9ULH0),-0.189,-0.174,-0.437,-0.481
KIAA1671 C554,0.0538,-0.04,0.208,0.218
KDM1B C465 (UniProt Q8NB78),-0.136,-0.135,-0.36,0.0107
KIF11 C723 (UniProt P52732),-0.21,0.0194,0.00907,0.0125
KANK2 C562 (UniProt Q63ZY3),-0.209,0.183,-0.0803,0.243
KDM2A C429 (UniProt Q9Y2K7),-0.168,0.535,-0.177,0.738
KIAA0754 C80 (UniProt O94854),0.0117,-0.0574,0.153,0.101
JADE3 C732 (UniProt Q92613),-0.146,0.146,-0.153,-0.0348
KIF11 C704 (UniProt P52732),-0.215,0.0801,-0.279,0.00156
JMJD1C C684 (UniProt Q15652),0.0716,-0.128,-0.245,-0.0249
JUP C90 (UniProt P14923),-0.0411,-0.137,0.203,-0.355
KIF11 C773 (UniProt P52732),0.0314,-0.0732,0.0906,-0.121
JPH1 C402 (UniProt Q9HDC5),-0.309,0.122,-0.0695,0.28
IVNS1ABP C134 (UniProt Q9Y6Y0),-0.209,-0.0623,0.315,-0.2

# 2 entries drawn at random from those above, as already listed:
Target,log2 mean competition ratio ([1]; 50 µM),log2 mean competition ratio ([1]; 200 µM),log2 mean competition ratio ([2]; 50 µM),log2 mean competition ratio ([2]; 200 µM)
KIF1C C975 (UniProt O43896),0.658,0.281,0.611,0.189
KDM2A C429 (UniProt Q9Y2K7),-0.168,0.535,-0.177,0.738
